In PubChem BioAssay AID504467 (National Center for Advancing Translational Sciences (NCATS), 2011):
Hit rate of the full screen: of about 330,000 compounds, about 7,700 (2.3%) were called active. This list was built around the results that the source calls inconclusive (neither active nor inactive); the mix of calls is not that of the screen. Calls follow the shape of the dose curve; as a rule, active = well fitted inhibition curve with a large enough effect; inconclusive = small, poorly fitted or top-dose-only effect, or effect the other way; inactive = flat fitted curve, though single readings scatter. A potency beside an inconclusive call is a rough fit, not a confirmed value.

Test: qHTS screen for small molecules that inhibit ELG1-dependent DNA repair in human embryonic kidney (HEK293T) cells expressing luciferase-tagged ELG1; also: nearly all actives have a fitted effect of over 55% in size
Conditions: HEK293T ELG1-luciferase reporter, luminescence, 16 h, DNA damage induced by 5-fluorouridine; series mostly up to 46.1 µM
Outline: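 5-Fluorouridine DNA damage + compound/DMSO, 2,000 cells/well, 16 h, 37 °C/5% CO2. ONE-Glo, 30 min RT, luminescence. Readout = decrease in reporter signal.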
Potency is read from the fitted curve at half-maximal effect.

Compound	Potency
CCC1S/C(=N/N=C/c2ccco2)N(Cc2ccc(F)cc2)C1=O (stereo not given)	inconclusive: 2.59 µM [inhibitor, full curve]
COc1ccc(-c2nn(-c3ccccc3)cc2C(=O)N(C)CC(=O)Nc2cccc(F)c2)cc1	inconclusive: 18.3 µM [inhibitor, single point]
Cn1c(=O)n(CCOc2ccc(Cl)cc2Cl)c2ccccc21	inconclusive: 16.4 µM [activator, partial curve, poor fit]
C=CCN(CC=C)C(=S)NC(=O)Cc1cccc2ccccc12	inactive
Cc1cccc(CSc2cn(CC(=O)N3CCOCC3)c3ccccc23)c1	inconclusive: 7.31 µM [activator, partial curve]
CN1CCc2c(OCC(=O)NC3CCCCC3)cccc2C1=O	inactive
CSc1nnc(-c2ccccc2SC)o1	inactive
COc1ccccc1Oc1cc(C#N)c(C#N)cc1-n1nnc2ccccc21	inconclusive: 10.3 µM [inhibitor, partial curve]
c1ccc(CSC2=NNC(c3ccccn3)S2)cc1 (stereo not given)	inconclusive: 3.26 µM [inhibitor, single point]
Cc1ccc(S(=O)(=O)NCc2ccc(C(=O)N3CCN(c4ccccc4)CC3)cc2)cc1	inactive
COC(=O)CC1C(=O)NCCN1C(=O)CSc1nnnn1-c1ccc(Cl)cc1 (stereo not given)	inconclusive: 13 µM [activator, partial curve, poor fit]
CCOC(=O)C1=C(C)NC(=S)N(C=O)C1c1ccccc1 (stereo not given)	inactive
CC(C)Cc1ccc(/C=C/C(=O)N2CCOCC2)cc1	inconclusive: 14.6 µM [activator, partial curve]
Nc1nc(-c2ccc3ccccc3c2)cs1	inconclusive: 6.51 µM [activator, partial curve]
Cc1ccc(N=c2oc3cc(O)ccc3cc2C(N)=O)cc1	inconclusive: 2.59 µM [inhibitor, full curve]
c1ccc2[nH]c(-c3nc4ccccc4[nH]3)nc2c1	inconclusive: 1.46 µM [activator, full curve]
CN1CCc2c(sc(N)c2C(=O)c2ccc(Cl)cc2)C1	inactive
N[C@@H](Cc1ccccc1)c1nnc(SC/C=C/c2ccccc2)o1	inactive
Cc1c(C(=O)N2CCN(c3ccc(C(F)(F)F)cn3)CC2)oc2ccccc12	inactive
CSc1ccccc1C(=O)Nc1ccc2c(c1)CCC2	inconclusive: 20.6 µM [activator, partial curve]
O=C(N/N=C/c1ccco1)c1cc(-c2ccccc2)nc2ccccc12	inconclusive: 1.3 µM [inhibitor, partial curve, poor fit]
CCCCN(C(=O)CCC(=O)OCC(=O)NCc1ccccc1)c1c(N)n(CCC)c(=O)[nH]c1=O	inactive
CC1CC(C)CN(c2ncnc3c2cnn3Cc2ccc(Cl)cc2)C1 (stereo not given)	inconclusive: 13 µM [inhibitor, partial curve, poor fit]
CC(C)NC(=S)N/N=C/c1ccc(N2CCOCC2)cc1	inconclusive: 9.2 µM [activator, partial curve, poor fit]

Compound	Potency
COC(=O)C(NC(=O)CCc1nnc2ccc(N3CCCCC3)nn12)C(C)C (stereo not given)	inconclusive: 18.3 µM [activator, single point]
CCc1cc(=O)oc2c3c(cc(OCC(=O)NCc4ccco4)c12)OC(C)(C)CC3	inconclusive: 25.9 µM [inhibitor, single point]
CC1CCCN(Cc2nc3c(c(=O)n(C)c(=O)n3C)n2CC(=O)c2ccccc2)C1 (stereo not given)	inconclusive: 32.6 µM [inhibitor, single point]
COc1cccc(C2CC(=O)Nc3cc4c(cc32)OCCO4)c1OC(C)C (stereo not given)	inconclusive: 18.4 µM [inhibitor, partial curve, poor fit]
O=C(NCc1ccccn1)c1cccc(NS(=O)(=O)c2cccc(Cl)c2)c1	inactive
O=C1C=CC2C(c3ccc4c(c3)OCO4)CC1N2Cc1ccccc1 (stereo not given)	inconclusive: 18.4 µM [inhibitor, single point]
O=C(CN1CCCC1)Nc1ccc(OCc2ccccc2)cc1	inconclusive: 14.6 µM [activator, partial curve]
O=C(O/N=C\c1ccc(N2CCCCC2)c([N+](=O)[O-])c1)c1cccc(C(F)(F)F)c1	inactive
CCCCC(=O)NC(=S)Nc1cc(C(=O)O)ccc1OC	inactive
Cc1nc(C)c(C(=O)NCc2ccccc2Cl)o1	inactive
C[C@H](NC(=O)N1CCn2c1nc1ccccc12)C(=O)N1CCCCC1	inactive
COc1ccc(C(=O)c2ccccc2O)c(O)c1	inactive
COc1cc(CNCCN2CCOCC2)ccc1OCc1ccc(Cl)cc1	inconclusive: 16.4 µM [activator, single point]
CC1=C(C(=O)NCc2ccccn2)C2(CCC(C)CC2)OC1=O (stereo not given)	inconclusive: 0.0259 µM [activator, full curve, poor fit]
CCCn1nnc(NC(=S)NC(=O)c2cccs2)n1	inconclusive: 18.4 µM [activator, partial curve]
Cc1nccc2[nH]c(=O)c(C(=O)NC3CCCCC3C)cc12 (stereo not given)	inconclusive: 29.1 µM [activator, single point]
CN1CCN(c2ccc(NC(=O)c3ccc(-c4ccccc4F)o3)cc2)CC1	inconclusive: 8.2 µM [activator, partial curve]
C/C(=N\NC(=O)c1c(Br)cnn1C)c1ccc(NC(=O)c2ccc(F)cc2)cc1	inconclusive: 29.1 µM [activator, single point]
CCOC(=O)c1csc(NC(=O)C(C)(C)C)n1	inconclusive: 23.1 µM [activator, single point]
S=c1[nH]nc(-c2ccc3c(c2)OCO3)n1-c1ccccc1	inconclusive: 20.6 µM [activator, partial curve, poor fit]
COC1CCCN(Cc2nc(Cc3ccccc3F)no2)C1 (stereo not given)	inconclusive: 25.9 µM [activator, partial curve, poor fit]
O=C1C2ON(c3ccccc3)C(c3cccnc3)C2C(=O)N1Cc1ccccc1 (stereo not given)	inconclusive: 25.9 µM [inhibitor, single point]
CC1(c2ccc(O)cc2)NC(=O)N(c2ccccc2)N1 (stereo not given)	inconclusive: 11.6 µM [activator, partial curve, poor fit]
Cc1cc(NC(=O)c2ccccc2)n(-c2ccccc2)n1	inconclusive: 23.1 µM [activator, partial curve, poor fit]

Compound	Potency
CCOc1ccc(NC(=O)CN(C)C(=O)/C=C/c2ccc(S(=O)(=O)N3CCCCCC3)cc2)cc1OCC	inactive
Cc1cccc(CCNC(=O)c2cccc(NC3=NC4CS(=O)(=O)CC4S3)c2)c1 (stereo not given)	inactive
CC(C)(C)NCC(O)COc1cccc2c1C[C@H](O)[C@H](O)C2 (stereo not given in full)	inconclusive: 29.1 µM [activator, single point]
CCCCNC(=O)CCC(=O)NNc1nc2ccccc2c2nc(C)nn12	inactive
O=C(O)C1C2CCC(O2)C1C(=O)Nc1cccc(F)c1 (stereo not given)	inconclusive: 11.2 µM [activator, partial curve, poor fit]
CCOC(=O)C1=C(COC(=O)CCOc2ccc(OCC)cc2)NC(=O)NC1C (stereo not given)	inconclusive: 4.61 µM [activator, partial curve, poor fit]
CC(C)C1CC(=O)NC(SCC(=O)Nc2ccc(Br)cc2)=C1C#N (stereo not given)	inconclusive: 29.1 µM [inhibitor, single point]
Cn1c(=O)n(CCOc2ccccc2Cl)c2ccccc21	inconclusive: 10 µM [activator, partial curve, poor fit]
COC(=O)C1CCN(C(=O)COC(=O)c2n[nH]c3ccccc23)CC1	inconclusive: 18.4 µM [activator, single point]
O=C(Nc1ccc2c(c1)OCCO2)c1cccnc1Oc1ccc(Cl)cc1	inconclusive: 20.6 µM [inhibitor, single point]
CS(=O)(=O)N(Cc1ccccc1)c1ccccn1	inactive
O=C(Nc1ccc2c(c1)CCC2)Nc1ccccc1Cl	inconclusive: 5.8 µM [activator, partial curve]
CC(C)Oc1ccc(S(=O)(=O)N2CCOCC2)cc1NC(=O)C1CCCCC1	inactive
Cc1noc(NC(=O)c2ccc(Cl)c(Cl)c2)c1Cl	inactive
COc1ccc(C(=O)NCC(c2cccnc2)N2CCN(c3ccccc3)CC2)cc1OC (stereo not given)	inactive
CCS(=O)(=O)N1CCC(NC(=O)c2cc(OC)cc(OC)c2)CC1	inactive
Cc1nn(C(=O)c2c([N+](=O)[O-])cnn2C)c(C)c1Cl	inconclusive: 20.6 µM [activator, partial curve, poor fit]
COc1ccccc1N(CC(=O)NC1CC2CCC1C2)S(=O)(=O)c1ccc(C)cc1 (stereo not given)	inconclusive: 18.3 µM [inhibitor, partial curve]
CC1=Nc2cc(C(=O)O)ccc2Sc2c(C)ccc(C)c21	inactive
C#CCOCCOCCOCCNc1nc(N2CCN(C(=O)CCCCCCCCCCNC(=O)[C@H]([C@@H](C)CC)n3cc(CCCCCN)nn3)CC2)nc(N2CCN(C(=O)CCCCCCCCCCNC(=O)[C@H]([C@@H](C)CC)n3cc(CCCCN=C(N)N)nn3)CC2)n1	inconclusive: 20 µM [inhibitor, single point]
CCOC(=O)C1(CCCc2ccccc2)CCN(C(=O)c2cnc(C)cn2)CC1	active: 16.4 µM
CCC(=NNC(=O)c1ccc2c(c1)nc(C)n2CC)c1cc(F)ccc1O	inconclusive: 4.61 µM [inhibitor, full curve]

In another format: results already given
Compound | Potency
CC(C)Oc1ccc(S(=O)(=O)N2CCOCC2)cc1NC(=O)C1CCCCC1 | inactive
Cc1noc(NC(=O)c2ccc(Cl)c(Cl)c2)c1Cl | inactive
COc1ccc(C(=O)NCC(c2cccnc2)N2CCN(c3ccccc3)CC2)cc1OC (stereo not given) | inactive
CCS(=O)(=O)N1CCC(NC(=O)c2cc(OC)cc(OC)c2)CC1 | inactive
Cc1nn(C(=O)c2c([N+](=O)[O-])cnn2C)c(C)c1Cl | inconclusive: 20.6 µM [activator, partial curve, poor fit]
COc1ccccc1N(CC(=O)NC1CC2CCC1C2)S(=O)(=O)c1ccc(C)cc1 (stereo not given) | inconclusive: 18.3 µM [inhibitor, partial curve]
